Reference: PubChem BioAssay AID1224828 (NIAID, 2016)

- Test: 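Knock-downs that increase or decrease LPS-induced p65 nuclear translocation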 (primary screen)
- Cells: mouse RAW264.7 G9 macrophage reporter cells (GFP-p65, Tnf promoter-mCherry)
- Knock-down reagent: siRNA pool against mouse genes, 100 nM
- Duration: 2 days siRNA transfection, then 40 min LPS before fixation
- Treatment: LPS (Salmonella minnesota R595) at 10 ng/ml
- Measured: 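Imaged p65 nuclear translocation ratio, normalised to the plate median, converted to robust z-scores and averaged across two replicates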
- Direction: p65 translocation robust z-score: higher = more nuclear NF-kappaB p65 after LPS than the plate median; nuclear/cytoplasmic p65 ratio: higher = more nuclear NF-kappaB p65
- Call rule: 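Called active when z exceeds 3.3 or falls under -1.56 (median of Tlr4 controls), giving activity score of at least 50; no calls for control wells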
- Calls: active = hit (p65 shift raised or lowered); inactive = no clear change
Shown is a random part of about 17,000 reagents tested. Of all reagents, 762 (4.5%) are marked active. 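Active calls include both raised and lowered p65 entry, mostly lowered; wells with fewer than 50 cells lack a z-score.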 The raw values are shown without normalisation. No sequences are given here.

The opening 2 records, ahead of the listing:
Or5p72 → p65 translocation robust z-score: 0.41; nuclear/cytoplasmic p65 ratio, rep 1: 1.51; nuclear/cytoplasmic p65 ratio, rep 2: 1.31; low cell count flag: enough cells to score; activity call: inactive
Krtap6-2 → p65 translocation robust z-score: -0.16; nuclear/cytoplasmic p65 ratio, rep 1: 1.48; nuclear/cytoplasmic p65 ratio, rep 2: 1.45; low cell count flag: enough cells to score; activity call: inactive

The listing, from the start:
Or5p72 → p65 translocation robust z-score: 0.41; nuclear/cytoplasmic p65 ratio, rep 1: 1.51; nuclear/cytoplasmic p65 ratio, rep 2: 1.31; low cell count flag: enough cells to score; activity call: inactive
Krtap6-2 → p65 translocation robust z-score: -0.16; nuclear/cytoplasmic p65 ratio, rep 1: 1.48; nuclear/cytoplasmic p65 ratio, rep 2: 1.45; low cell count flag: enough cells to score; activity call: inactive
Or9k7 → nuclear/cytoplasmic p65 ratio, rep 1: 1.21; nuclear/cytoplasmic p65 ratio, rep 2: 1.36; low cell count flag: fewer than 50 cells per well; well left out of scoring; activity call: inactive
Cntn3 → p65 translocation robust z-score: -0.54; nuclear/cytoplasmic p65 ratio, rep 1: 1.5; nuclear/cytoplasmic p65 ratio, rep 2: 1.71; low cell count flag: enough cells to score; activity call: inactive
Chil4 → p65 translocation robust z-score: 0.14; nuclear/cytoplasmic p65 ratio, rep 1: 1.61; nuclear/cytoplasmic p65 ratio, rep 2: 1.81; low cell count flag: enough cells to score; activity call: inactive
Wrap73 → p65 translocation robust z-score: 0.48; nuclear/cytoplasmic p65 ratio, rep 1: 1.64; nuclear/cytoplasmic p65 ratio, rep 2: 1.62; low cell count flag: enough cells to score; activity call: inactive
Cox6c → p65 translocation robust z-score: 0.23; nuclear/cytoplasmic p65 ratio, rep 1: 1.6; nuclear/cytoplasmic p65 ratio, rep 2: 1.84; low cell count flag: enough cells to score; activity call: inactive
Stx12 → p65 translocation robust z-score: -0.71; nuclear/cytoplasmic p65 ratio, rep 1: 1.31; nuclear/cytoplasmic p65 ratio, rep 2: 1.16; low cell count flag: enough cells to score; activity call: inactive
Tbx5 → p65 translocation robust z-score: 0.97; nuclear/cytoplasmic p65 ratio, rep 1: 1.63; nuclear/cytoplasmic p65 ratio, rep 2: 1.69; low cell count flag: enough cells to score; activity call: inactive
Defb11 → p65 translocation robust z-score: 1.65; nuclear/cytoplasmic p65 ratio, rep 1: 1.75; nuclear/cytoplasmic p65 ratio, rep 2: 1.84; low cell count flag: enough cells to score; activity call: inactive
Pou3f1 → p65 translocation robust z-score: -0.14; nuclear/cytoplasmic p65 ratio, rep 1: 1.46; nuclear/cytoplasmic p65 ratio, rep 2: 1.41; low cell count flag: enough cells to score; activity call: inactive
Osr1 → p65 translocation robust z-score: 0.42; nuclear/cytoplasmic p65 ratio, rep 1: 1.98; nuclear/cytoplasmic p65 ratio, rep 2: 1.42; low cell count flag: enough cells to score; activity call: inactive
Slc9a1 → nuclear/cytoplasmic p65 ratio, rep 1: 1.41; nuclear/cytoplasmic p65 ratio, rep 2: 1.34; low cell count flag: fewer than 50 cells per well; well left out of scoring; activity call: inactive
Pomt2 → nuclear/cytoplasmic p65 ratio, rep 1: 1.22; nuclear/cytoplasmic p65 ratio, rep 2: 1.15; low cell count flag: fewer than 50 cells per well; well left out of scoring; activity call: inactive
Glb1 → p65 translocation robust z-score: -0.7; nuclear/cytoplasmic p65 ratio, rep 1: 1.33; nuclear/cytoplasmic p65 ratio, rep 2: 1.29; low cell count flag: enough cells to score; activity call: inactive
Rin3 → nuclear/cytoplasmic p65 ratio, rep 1: 1.19; nuclear/cytoplasmic p65 ratio, rep 2: 1.17; low cell count flag: fewer than 50 cells per well; well left out of scoring; activity call: inactive
Ager → p65 translocation robust z-score: -0.25; nuclear/cytoplasmic p65 ratio, rep 1: 1.5; nuclear/cytoplasmic p65 ratio, rep 2: 1.66; low cell count flag: enough cells to score; activity call: inactive
Fam110a → p65 translocation robust z-score: -2.63; nuclear/cytoplasmic p65 ratio, rep 1: 1.04; nuclear/cytoplasmic p65 ratio, rep 2: 1.1; low cell count flag: enough cells to score; activity call: active
Adrm1 → nuclear/cytoplasmic p65 ratio, rep 1: 1.29; nuclear/cytoplasmic p65 ratio, rep 2: 1.68; low cell count flag: fewer than 50 cells per well; well left out of scoring; activity call: inactive
Oser1 → p65 translocation robust z-score: -0.29; nuclear/cytoplasmic p65 ratio, rep 1: 1.31; nuclear/cytoplasmic p65 ratio, rep 2: 1.22; low cell count flag: enough cells to score; activity call: inactive
A930017M01Rik → p65 translocation robust z-score: 2.16; nuclear/cytoplasmic p65 ratio, rep 1: 1.67; nuclear/cytoplasmic p65 ratio, rep 2: 1.81; low cell count flag: enough cells to score; activity call: inactive
